No constants are given. Whether binding was seen depends on the method and setting. In cells and extracts the contact can be indirect. Some entries that bind do so weakly or less than the wild type. For part of these data: Sequences can lack the tags named with a protein. Blank lines part the entries; values can stand above or below the molecule they belong to.
Key:
[1] = target: T1, Flag-tagged full-length USP4 (human) (UniProt Q13107); assay: co-IP; HEK-293T cells co-transfected with Flag-tagged USP4 and Myc-tagged PKM2 constructs; whole cell lysates immunoprecipitated with Myc or Flag antibody, protein A/G PLUS-Agarose, immunoblot with the other tag's antibody; control serum
T1 sequence: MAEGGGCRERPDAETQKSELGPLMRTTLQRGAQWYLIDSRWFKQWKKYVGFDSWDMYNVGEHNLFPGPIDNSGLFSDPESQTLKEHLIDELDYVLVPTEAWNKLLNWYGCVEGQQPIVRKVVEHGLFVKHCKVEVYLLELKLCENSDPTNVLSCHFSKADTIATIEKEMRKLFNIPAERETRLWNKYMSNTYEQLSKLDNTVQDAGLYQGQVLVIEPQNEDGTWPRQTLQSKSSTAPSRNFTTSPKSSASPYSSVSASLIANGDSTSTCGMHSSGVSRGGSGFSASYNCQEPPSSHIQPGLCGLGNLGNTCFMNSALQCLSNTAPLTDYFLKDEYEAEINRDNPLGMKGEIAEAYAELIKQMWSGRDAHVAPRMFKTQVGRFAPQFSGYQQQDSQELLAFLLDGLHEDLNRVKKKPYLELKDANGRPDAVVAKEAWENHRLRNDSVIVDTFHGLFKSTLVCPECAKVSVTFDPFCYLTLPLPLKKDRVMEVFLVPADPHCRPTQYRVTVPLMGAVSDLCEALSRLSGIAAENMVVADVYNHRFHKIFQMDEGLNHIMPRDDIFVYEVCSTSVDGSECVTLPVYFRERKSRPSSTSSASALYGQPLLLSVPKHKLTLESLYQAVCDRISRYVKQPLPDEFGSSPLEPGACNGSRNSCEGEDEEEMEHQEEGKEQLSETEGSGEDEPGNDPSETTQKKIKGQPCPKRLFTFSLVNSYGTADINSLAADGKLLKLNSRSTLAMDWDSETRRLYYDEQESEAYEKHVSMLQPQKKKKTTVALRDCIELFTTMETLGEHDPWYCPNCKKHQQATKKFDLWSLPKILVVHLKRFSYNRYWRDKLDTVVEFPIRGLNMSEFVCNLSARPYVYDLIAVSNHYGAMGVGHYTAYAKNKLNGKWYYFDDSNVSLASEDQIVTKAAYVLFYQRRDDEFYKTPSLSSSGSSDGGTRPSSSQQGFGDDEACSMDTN

Protein sequences, listed by entry. Tags and fused reporters are not part of them.
UniProt P14618: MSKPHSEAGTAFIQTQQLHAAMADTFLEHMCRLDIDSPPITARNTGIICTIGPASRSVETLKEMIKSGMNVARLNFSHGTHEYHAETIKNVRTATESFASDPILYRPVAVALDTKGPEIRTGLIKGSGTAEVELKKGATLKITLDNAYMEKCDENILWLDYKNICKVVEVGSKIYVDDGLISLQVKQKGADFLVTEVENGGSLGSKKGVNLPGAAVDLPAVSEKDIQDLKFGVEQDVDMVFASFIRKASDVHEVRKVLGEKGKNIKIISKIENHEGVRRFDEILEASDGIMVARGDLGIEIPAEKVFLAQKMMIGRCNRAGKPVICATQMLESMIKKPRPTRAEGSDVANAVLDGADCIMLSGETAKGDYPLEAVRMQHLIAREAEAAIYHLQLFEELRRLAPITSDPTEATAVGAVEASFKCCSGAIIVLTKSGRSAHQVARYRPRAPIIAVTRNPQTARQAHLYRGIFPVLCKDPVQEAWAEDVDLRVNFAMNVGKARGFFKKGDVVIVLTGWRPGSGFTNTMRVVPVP

[2] = target: T2, endogenous USP4 (human (endogenous in AGS and HGC-27)) (UniProt Q13107); assay: co-IP; endogenous proteins; AGS and HGC-27 cell lysates immunoprecipitated with the USP4 antibody, immunoblot with the PKM2 antibody; normal rabbit IgG as control
T2 sequence: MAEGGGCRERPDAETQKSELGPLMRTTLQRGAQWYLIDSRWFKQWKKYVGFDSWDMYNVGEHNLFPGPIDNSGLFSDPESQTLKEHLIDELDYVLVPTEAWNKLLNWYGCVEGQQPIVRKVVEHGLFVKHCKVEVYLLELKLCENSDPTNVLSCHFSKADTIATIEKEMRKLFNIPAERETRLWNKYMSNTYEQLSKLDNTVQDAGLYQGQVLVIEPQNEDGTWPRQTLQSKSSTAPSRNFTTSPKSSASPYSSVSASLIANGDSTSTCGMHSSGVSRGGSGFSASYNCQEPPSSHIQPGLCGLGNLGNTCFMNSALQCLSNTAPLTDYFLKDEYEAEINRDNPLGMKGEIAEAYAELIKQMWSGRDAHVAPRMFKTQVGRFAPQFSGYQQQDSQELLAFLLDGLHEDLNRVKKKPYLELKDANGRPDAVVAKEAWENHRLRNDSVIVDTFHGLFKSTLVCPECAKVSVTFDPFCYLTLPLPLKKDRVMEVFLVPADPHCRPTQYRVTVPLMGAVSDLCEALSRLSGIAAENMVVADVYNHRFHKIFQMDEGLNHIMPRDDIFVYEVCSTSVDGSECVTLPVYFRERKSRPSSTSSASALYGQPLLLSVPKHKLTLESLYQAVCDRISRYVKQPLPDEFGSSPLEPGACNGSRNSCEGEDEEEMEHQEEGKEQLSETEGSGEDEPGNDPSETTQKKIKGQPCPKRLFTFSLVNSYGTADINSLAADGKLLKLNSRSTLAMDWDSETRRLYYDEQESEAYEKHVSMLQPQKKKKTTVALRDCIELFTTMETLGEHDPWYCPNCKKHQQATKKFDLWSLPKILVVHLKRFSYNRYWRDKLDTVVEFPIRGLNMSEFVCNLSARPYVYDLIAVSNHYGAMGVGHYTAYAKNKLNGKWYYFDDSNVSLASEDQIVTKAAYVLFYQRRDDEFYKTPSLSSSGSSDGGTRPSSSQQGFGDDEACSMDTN

[3] = target: Myc-tagged full-length PKM2 (human) (UniProt P14618); assay: co-IP; HEK-293T cells co-transfected with Flag-tagged USP4 and Myc-tagged PKM2 constructs; whole cell lysates immunoprecipitated with Myc or Flag antibody, protein A/G PLUS-Agarose, immunoblot with the other tag's antibody; control serum

binding [1]: binds
Molecule: Myc-tagged full-length PKM2 (from UniProt P14618 1-531) (enzyme)

binding [2]: binds
Molecule: endogenous PKM2 (from UniProt P14618 1-531) (enzyme)

binding [3]: binds
B1: Flag-tagged full-length USP4 (enzyme, UniProt Q13107 1-963)
chain: MAEGGGCRERPDAETQKSELGPLMRTTLQRGAQWYLIDSRWFKQWKKYVGFDSWDMYNVGEHNLFPGPIDNSGLFSDPESQTLKEHLIDELDYVLVPTEAWNKLLNWYGCVEGQQPIVRKVVEHGLFVKHCKVEVYLLELKLCENSDPTNVLSCHFSKADTIATIEKEMRKLFNIPAERETRLWNKYMSNTYEQLSKLDNTVQDAGLYQGQVLVIEPQNEDGTWPRQTLQSKSSTAPSRNFTTSPKSSASPYSSVSASLIANGDSTSTCGMHSSGVSRGGSGFSASYNCQEPPSSHIQPGLCGLGNLGNTCFMNSALQCLSNTAPLTDYFLKDEYEAEINRDNPLGMKGEIAEAYAELIKQMWSGRDAHVAPRMFKTQVGRFAPQFSGYQQQDSQELLAFLLDGLHEDLNRVKKKPYLELKDANGRPDAVVAKEAWENHRLRNDSVIVDTFHGLFKSTLVCPECAKVSVTFDPFCYLTLPLPLKKDRVMEVFLVPADPHCRPTQYRVTVPLMGAVSDLCEALSRLSGIAAENMVVADVYNHRFHKIFQMDEGLNHIMPRDDIFVYEVCSTSVDGSECVTLPVYFRERKSRPSSTSSASALYGQPLLLSVPKHKLTLESLYQAVCDRISRYVKQPLPDEFGSSPLEPGACNGSRNSCEGEDEEEMEHQEEGKEQLSETEGSGEDEPGNDPSETTQKKIKGQPCPKRLFTFSLVNSYGTADINSLAADGKLLKLNSRSTLAMDWDSETRRLYYDEQESEAYEKHVSMLQPQKKKKTTVALRDCIELFTTMETLGEHDPWYCPNCKKHQQATKKFDLWSLPKILVVHLKRFSYNRYWRDKLDTVVEFPIRGLNMSEFVCNLSARPYVYDLIAVSNHYGAMGVGHYTAYAKNKLNGKWYYFDDSNVSLASEDQIVTKAAYVLFYQRRDDEFYKTPSLSSSGSSDGGTRPSSSQQGFGDDEACSMDTN

Reference: article PMC10456134
